## Primary screen of a compound library

Protein sequences, listed by entry. Tags and fused reporters are not part of them. Residues count along the entry.
UniProt P9WNZ1, whole entry: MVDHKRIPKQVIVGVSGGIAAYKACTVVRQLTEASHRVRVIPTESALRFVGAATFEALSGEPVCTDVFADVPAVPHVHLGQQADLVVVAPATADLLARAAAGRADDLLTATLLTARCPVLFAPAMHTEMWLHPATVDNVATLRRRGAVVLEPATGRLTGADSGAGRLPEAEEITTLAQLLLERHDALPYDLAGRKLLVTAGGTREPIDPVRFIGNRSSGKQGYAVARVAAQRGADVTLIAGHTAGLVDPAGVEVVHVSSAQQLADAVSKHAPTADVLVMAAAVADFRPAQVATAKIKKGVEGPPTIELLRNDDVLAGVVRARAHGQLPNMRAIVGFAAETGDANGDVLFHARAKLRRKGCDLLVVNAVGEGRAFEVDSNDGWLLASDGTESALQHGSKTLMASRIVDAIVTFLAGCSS
UniProt I6X8D2, whole entry: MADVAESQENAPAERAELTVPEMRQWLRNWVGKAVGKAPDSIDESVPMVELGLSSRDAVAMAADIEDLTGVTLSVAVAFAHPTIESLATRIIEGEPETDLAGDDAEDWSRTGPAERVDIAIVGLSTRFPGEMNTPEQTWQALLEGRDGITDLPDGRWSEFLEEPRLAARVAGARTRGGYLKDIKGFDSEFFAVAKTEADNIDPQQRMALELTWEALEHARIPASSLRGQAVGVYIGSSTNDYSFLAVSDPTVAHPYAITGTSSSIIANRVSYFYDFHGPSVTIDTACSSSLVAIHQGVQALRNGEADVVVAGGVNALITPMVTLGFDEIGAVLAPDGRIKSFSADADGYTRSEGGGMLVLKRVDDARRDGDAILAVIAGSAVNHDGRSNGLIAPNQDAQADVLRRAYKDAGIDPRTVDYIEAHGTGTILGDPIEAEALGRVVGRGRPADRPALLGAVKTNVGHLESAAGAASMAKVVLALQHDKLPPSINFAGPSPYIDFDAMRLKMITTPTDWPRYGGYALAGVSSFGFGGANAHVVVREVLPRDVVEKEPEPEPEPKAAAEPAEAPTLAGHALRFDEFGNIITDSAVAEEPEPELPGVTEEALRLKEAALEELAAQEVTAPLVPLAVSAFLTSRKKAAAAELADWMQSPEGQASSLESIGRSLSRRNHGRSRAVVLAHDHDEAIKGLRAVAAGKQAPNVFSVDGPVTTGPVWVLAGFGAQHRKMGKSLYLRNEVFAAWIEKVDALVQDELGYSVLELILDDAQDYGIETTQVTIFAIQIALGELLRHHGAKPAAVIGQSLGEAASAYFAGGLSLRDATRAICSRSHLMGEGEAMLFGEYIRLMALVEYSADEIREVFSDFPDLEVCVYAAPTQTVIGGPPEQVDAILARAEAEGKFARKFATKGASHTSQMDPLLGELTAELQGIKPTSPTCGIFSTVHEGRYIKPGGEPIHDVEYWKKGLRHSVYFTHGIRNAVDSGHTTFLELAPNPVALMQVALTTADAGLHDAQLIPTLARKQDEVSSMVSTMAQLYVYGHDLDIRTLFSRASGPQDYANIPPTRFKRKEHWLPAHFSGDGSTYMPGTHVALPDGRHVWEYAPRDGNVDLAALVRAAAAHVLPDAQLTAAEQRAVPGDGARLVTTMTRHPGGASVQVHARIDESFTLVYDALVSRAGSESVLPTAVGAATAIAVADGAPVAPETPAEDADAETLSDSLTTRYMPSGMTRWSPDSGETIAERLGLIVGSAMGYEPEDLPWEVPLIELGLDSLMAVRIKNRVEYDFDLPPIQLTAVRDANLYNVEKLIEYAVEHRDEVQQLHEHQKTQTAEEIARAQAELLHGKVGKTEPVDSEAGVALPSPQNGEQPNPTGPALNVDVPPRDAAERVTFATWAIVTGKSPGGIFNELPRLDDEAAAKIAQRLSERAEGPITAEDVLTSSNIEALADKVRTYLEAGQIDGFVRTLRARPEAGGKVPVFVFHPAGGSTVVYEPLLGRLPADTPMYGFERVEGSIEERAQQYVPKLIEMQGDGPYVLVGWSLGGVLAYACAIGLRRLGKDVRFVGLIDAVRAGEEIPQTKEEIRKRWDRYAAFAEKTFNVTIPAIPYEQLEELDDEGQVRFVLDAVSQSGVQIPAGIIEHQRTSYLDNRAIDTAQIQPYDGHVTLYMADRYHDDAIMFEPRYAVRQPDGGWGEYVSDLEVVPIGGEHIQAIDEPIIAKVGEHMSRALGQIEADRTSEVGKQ
UniProt P9WPC5, whole entry: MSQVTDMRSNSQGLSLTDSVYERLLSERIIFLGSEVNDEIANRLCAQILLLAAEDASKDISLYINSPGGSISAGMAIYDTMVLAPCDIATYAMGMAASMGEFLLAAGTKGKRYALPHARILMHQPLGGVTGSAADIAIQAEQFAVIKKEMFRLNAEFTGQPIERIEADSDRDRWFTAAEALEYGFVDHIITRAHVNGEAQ
UniProt P9WPC3, whole entry partner: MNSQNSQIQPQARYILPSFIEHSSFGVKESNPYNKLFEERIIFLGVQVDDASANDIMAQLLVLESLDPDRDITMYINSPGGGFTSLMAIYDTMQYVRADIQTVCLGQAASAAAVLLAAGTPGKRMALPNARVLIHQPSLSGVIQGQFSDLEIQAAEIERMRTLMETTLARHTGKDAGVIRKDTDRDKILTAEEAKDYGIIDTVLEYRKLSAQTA
UniProt A4I591, 1-473: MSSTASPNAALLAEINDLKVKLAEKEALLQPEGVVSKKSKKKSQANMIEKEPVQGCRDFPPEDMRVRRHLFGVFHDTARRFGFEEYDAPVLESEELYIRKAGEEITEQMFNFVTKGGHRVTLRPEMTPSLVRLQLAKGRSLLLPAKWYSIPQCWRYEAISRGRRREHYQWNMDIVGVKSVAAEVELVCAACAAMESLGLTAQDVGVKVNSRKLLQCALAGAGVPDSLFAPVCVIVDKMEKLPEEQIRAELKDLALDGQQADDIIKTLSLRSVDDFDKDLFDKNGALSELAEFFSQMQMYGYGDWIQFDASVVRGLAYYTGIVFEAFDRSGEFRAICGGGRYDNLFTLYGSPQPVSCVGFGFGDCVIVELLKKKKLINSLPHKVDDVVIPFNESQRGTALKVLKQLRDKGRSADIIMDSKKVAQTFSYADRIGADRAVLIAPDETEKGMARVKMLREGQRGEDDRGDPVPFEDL
UniProt P9WFT3, whole entry: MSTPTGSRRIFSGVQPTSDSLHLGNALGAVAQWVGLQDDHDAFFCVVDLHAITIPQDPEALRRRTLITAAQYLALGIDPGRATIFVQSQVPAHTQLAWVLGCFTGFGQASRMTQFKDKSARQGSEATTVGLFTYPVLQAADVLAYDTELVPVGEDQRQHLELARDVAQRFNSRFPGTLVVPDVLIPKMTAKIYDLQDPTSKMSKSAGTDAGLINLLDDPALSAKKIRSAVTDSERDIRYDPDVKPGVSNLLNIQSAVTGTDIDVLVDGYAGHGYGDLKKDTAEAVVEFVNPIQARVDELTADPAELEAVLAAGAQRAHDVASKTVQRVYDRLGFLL

The values are deposited in ChEMBL (CHEMBL3988442, “University of Dundee, Small-Polar-MMV Screening Library” (2021)).

CoaBC: 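Coenzyme A biosynthesis protein CoaBC, Mycobacterium tuberculosis (UniProt P9WNZ1). Enzyme assay of CoaBC with a phosphate dye (Biomol Green) read at 650 nm. Compounds at 30 µM. Higher reads as stronger inhibition, judged from the few compounds that gave an IC50. Most strong results did not repeat in a second test. About 67,000 compounds were tested under these conditions; 0.06% (about 40) showed 50% or more at least once.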
Pks13 thioesterase: 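Enzyme assay of the thioesterase domain of polyketide synthase 13; the read-out is not stated. Target: Polyketide synthase Pks13, Mycobacterium tuberculosis (UniProt I6X8D2). Concentration: 30 µM. The record gives no direction; the compounds picked for IC50 retests had high values, so higher reads as stronger inhibition. Of about 67,000 compounds tested this way, about 300 (0.46%) reached 50% or more in at least one test.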
ClpP1P2: 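ClpP1P2, Mycobacterium tuberculosis (UniProt P9WPC5 and UniProt P9WPC3). Protease assay of ClpP1P2, read by the AMC dye that it sets free. Compounds at 50 µM. Higher reads as stronger inhibition, judged from the few compounds that gave an IC50. Most other retested compounds had strongly negative values. About 69,000 compounds were tested under these conditions; 0.015% (about 10) showed 50% or more at least once.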
LiHisRS: 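Enzyme assay of histidyl-tRNA synthetase; the read-out is not stated. Target: Histidine-tRNA ligase, Leishmania infantum (UniProt A4I591). Concentration: 30 µM. The record gives no direction; compounds that gave an IC50 in retests scored well above the rest, so higher reads as stronger inhibition. The assay is labelled LdHisRS but filed under L. infantum. About 69,000 compounds were tested under these conditions; 0.6% (about 410) showed 50% or more at least once.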
MtTrpRS: 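Tryptophan-tRNA ligase, Mycobacterium tuberculosis (UniProt P9WFT3). Enzyme assay of tryptophanyl-tRNA synthetase; the read-out is not stated. Tested at 10 µM. Higher most likely means stronger inhibition; the record gives no direction and few retests gave an IC50. About 65,000 compounds were tested under these conditions; 0.098% (about 64) showed 50% or more at least once.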

Each number is a percent effect as filed. The controls that fix the scale are not given in the record; negative values are as filed. Compounds were drawn at random from those tested, without regard to their results. A dash means the value is not listed here; it may have been measured.

structure | CoaBC | Pks13 thioesterase | ClpP1P2 | LiHisRS | MtTrpRS
O=C(c1ccc2c(c1)CCC2)N1CCC(c2n[nH]c(C3CC3)n2)CC1 | 0.3817 | 16.44 | 1.007 | 4.348 | -3.578
O=c1cc(-c2cccnc2)nc(-c2ccc(CN3CC[C@H](O)C3)cc2)[nH]1 | 3.342 | -3.773 | 13.8 | 17.71 | -0.4042
COC(=O)CNC(=O)C1(N(C)Cc2ccccc2)Cc2ccccc2C1 | 4.139 | -69.98 | -18.59 | 7.018 | -3.319
CCCN1CCC(N2CCC(Cn3cc(CC(C)O)nn3)CC2)CC1 (centres undefined) | 6.012 | - | -9.98 | 17.65 | 3.701
O=C(CCNC(=O)c1ccoc1)Nc1ccccc1F | 2.376 | -22.09 | -11.1 | 16.53 | 0.4068
Cn1ncc(N2CCOCC2)c(Cl)c1=O | - | -14.67 | 6.991 | 17.14 | -1.135
Cc1nc(-c2ccsc2)ccc1C(=O)O | 2.532 | -5.68 | -5.045 | 22.12 | -8.72
C[C@H](NC(=O)C1CC1)c1nc2cc(-c3ccc(F)cc3)ncn2n1 | 1.703 | 7.369 | -12.66 | -34.74 | -3.884
O=C(O)C1(Oc2ccccc2F)CCN(C/C=C/c2ccco2)CC1 | 12.02 | -33.47 | -2.041 | -40.98 | -0.6157
CC(C)NC(=O)Cn1cc(OCc2ccc(F)cc2)c(=O)cc1CO | 3.065 | -11.77 | 1.839 | 7.792 | -5.562
CN(C)C(=O)CO[C@H]1CN(Cc2cccc(F)c2)[C@@H]2CCCO[C@H]12 | 2.773 | -8.969 | -16.12 | 12.33 | -3.293
CNC(=O)[C@@H]1C[C@H]2CN(C(=O)c3ccco3)C[C@H]2N1C | 2.411 | -6.273 | 4.126 | 11.32 | 0.1049
Cn1cc(CN(C(=O)c2ccc(O)c(Cl)c2)C2CC2)cn1 | 11.67 | -7.048 | -6.405 | 18.07 | 4.897
CCCN(CC1COc2ccccc2O1)C(=O)C1=NN(C)C(=O)CC1 (centres undefined) | 3.537 | -34.63 | -3.721 | 8.791 | 1.722
COCCN1CC(c2nc(CC3CCN(C)CC3)no2)CCC1=O (centres undefined) | 4.884 | -18.43 | 6.109 | 6.25 | -5.255
Cc1ccn(-c2ccccc2NCc2cccnc2C)n1 | 0.2132 | -9.748 | -0.1488 | 7.692 | 1.497
Cc1nc(CN2CCN(CCCc3nc4ccccc4o3)CC2)no1 | 7.582 | -20.13 | 2.978 | 12.86 | 6.859
CN(C)C(C(=O)NC1(CO)CCCC1)c1ccc(F)cc1 (centres undefined) | 6.237 | 8.373 | 5.74 | 10.26 | 3.073
COc1ccc(C(O)CNC(=O)NCc2csc(C)n2)cc1 (centres undefined) | 3.71 | -18.38 | 13.33 | 30.77 | -1.069
Cc1cc(N2C[C@H](C3CC3)[C@@H](N)C2)nc(N2CCCCC2)n1 | 6.931 | 14.27 | 2.804 | 22 | -1.037
COc1ccc(C(C)N(C)Cc2c(C3CC3)[nH]c3ncccc23)cc1 (centres undefined) | 5.023 | -6.085 | -22.97 | 8.054 | -8.045
Cc1nc(CN2CCN(C(C)C(=O)NC3CCCC3)CC2)cs1 (centres undefined) | 2.746 | 1.085 | 16.92 | 18.31 | 1.147
CC(C)c1cc(NCC(O)c2ccc(F)cc2)n2nccc2n1 (centres undefined) | 0.2132 | 1.949 | -11.48 | 13.46 | 0.2322
CN(C)C(=O)N1CCN(CCCOc2ccccc2)[C@H]2CS(=O)(=O)C[C@H]21 | -3.909 | -2.063 | 2.455 | 8.602 | -4.125
CCN(Cc1ccc(-c2ccccn2)cc1)C1CCS(=O)(=O)C1 (centres undefined) | 10.5 | -89.33 | 0.6438 | 9.402 | -1.201
Cc1cc(C(=O)N2CC[C@@]3(C[C@@H](NS(C)(=O)=O)CCO3)C2)no1 | 4.25 | -4.165 | -2.88 | 20 | -3.44
CC(C)(C)c1csc(CCNC(=O)[C@H](c2ccccc2)n2cnnn2)n1 | -7.547 | 5.737 | -11.33 | 7.692 | 1.54
CS(=O)(=O)NC[C@]12COC[C@H]1CN(CC1CCC1)C2 | 6.173 | -19.84 | 5.886 | 8.182 | -
O=C(NCCn1nc2ccccn2c1=O)c1sccc1-c1ccccc1 | 7.347 | -25.57 | -21.65 | 22.02 | 0.2903
CC(O)CN1CCN(CCOCC(F)(F)F)CC1 (centres undefined) | 0.6889 | -16.03 | -6.719 | 10.2 | 9.654
CS(=O)(=O)Cc1nc(CNc2c(F)cc(F)cc2F)cs1 | 14.43 | -6.148 | -8.437 | 13.7 | -4.62
Cn1nccc1-c1nnn2c1COC(CNCc1nccs1)C2 (centres undefined) | 7.856 | 3.265 | -10.88 | -4.425 | 0.9213
CN(CC1CCCO1)c1nc(-c2cccnc2)nc2c1CCNCC2 (centres undefined) | -20 | -36.39 | 8.668 | 8.901 | -6.647
CCN(C)CC(=O)N1CCC(c2cc(N3CCOCC3)nc(C)n2)CC1 | 15.87 | 2.431 | 5.2 | 22.22 | -5.103
CC(C#N)NS(=O)(=O)c1ccc2c(c1)N(C)CCC2 (centres undefined) | 9.611 | -24.01 | 7.69 | 15.49 | 0.3276
COc1ccc(-c2nnsc2C(=O)N2CCSCC2)cc1 | -3.066 | -9.944 | -8.223 | 7.692 | 1.54
COc1ccc(C(=O)N2CCOC(Cc3cccc(C(F)(F)F)c3)C2)o1 (centres undefined) | 9.804 | - | -8.425 | 5.263 | -2.581
O=C1C[C@H]2[C@@H](CCN2C(=O)Cc2ccsc2)N1Cc1cccnc1 | 7.336 | -20.74 | 6.7 | 23.08 | -4.797
CN(C)CCN1CCC2(CCN(C(=O)c3ccc(F)cc3)CC2)C1=O | 0 | -4.671 | 4.96 | 14.63 | 0.5344
COCCn1ccnc1C1CCN(C(=O)CSc2nnc(C)o2)CC1 | 2.39 | -22.38 | 8.081 | 12.39 | 0.9524
c1cncc(-c2ncnc3c2CCN(Cc2cccs2)CC3)c1 | 1.481 | -50.36 | 4.798 | 13.89 | -0.8167

The last 5 entries again:

structure,CoaBC,Pks13 thioesterase,ClpP1P2,LiHisRS,MtTrpRS
COc1ccc(C(=O)N2CCOC(Cc3cccc(C(F)(F)F)c3)C2)o1 (centres undefined),9.804,-,-8.425,5.263,-2.581
O=C1C[C@H]2[C@@H](CCN2C(=O)Cc2ccsc2)N1Cc1cccnc1,7.336,-20.74,6.7,23.08,-4.797
CN(C)CCN1CCC2(CCN(C(=O)c3ccc(F)cc3)CC2)C1=O,0,-4.671,4.96,14.63,0.5344
COCCn1ccnc1C1CCN(C(=O)CSc2nnc(C)o2)CC1,2.39,-22.38,8.081,12.39,0.9524
c1cncc(-c2ncnc3c2CCN(Cc2cccs2)CC3)c1,1.481,-50.36,4.798,13.89,-0.8167